Measurements published in publication PMC7590160.
These are yes or no findings as the source states them, for the method shown. Binding seen in cells or lysates may run through a third protein. Some binding calls cover weakened binding; strength is not graded here.

The chains behind the UniProt entries cited, without tags or fusion partners. Where a name states a change or a piece, a line headed by the entry shows the natural chain unless it says otherwise. A line that says so, or that is headed by a name, gives the form on record, which may keep a tag or linker.
UniProt Q8K3K8: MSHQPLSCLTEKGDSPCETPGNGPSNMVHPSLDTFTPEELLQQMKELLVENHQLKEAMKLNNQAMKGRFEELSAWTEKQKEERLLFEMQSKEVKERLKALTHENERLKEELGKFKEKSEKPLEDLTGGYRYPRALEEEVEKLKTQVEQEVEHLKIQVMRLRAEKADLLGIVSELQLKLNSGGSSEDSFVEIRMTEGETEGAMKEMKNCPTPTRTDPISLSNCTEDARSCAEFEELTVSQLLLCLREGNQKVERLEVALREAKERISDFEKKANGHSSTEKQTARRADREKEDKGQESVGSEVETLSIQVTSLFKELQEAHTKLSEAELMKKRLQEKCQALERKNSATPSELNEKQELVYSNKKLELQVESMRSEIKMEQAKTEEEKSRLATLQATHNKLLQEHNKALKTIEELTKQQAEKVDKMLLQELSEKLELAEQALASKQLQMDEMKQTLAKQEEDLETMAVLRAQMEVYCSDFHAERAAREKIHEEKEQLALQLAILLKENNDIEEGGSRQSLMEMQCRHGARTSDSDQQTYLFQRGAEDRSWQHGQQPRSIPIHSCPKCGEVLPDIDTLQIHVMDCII
UniProt P00441: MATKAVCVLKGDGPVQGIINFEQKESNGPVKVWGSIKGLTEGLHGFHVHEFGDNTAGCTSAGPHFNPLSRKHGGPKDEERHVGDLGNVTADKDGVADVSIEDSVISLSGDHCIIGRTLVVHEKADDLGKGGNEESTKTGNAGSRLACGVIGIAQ
mutant SOD1 A4V, FLAG-tagged (A4V-FLAG) (P00441, form named): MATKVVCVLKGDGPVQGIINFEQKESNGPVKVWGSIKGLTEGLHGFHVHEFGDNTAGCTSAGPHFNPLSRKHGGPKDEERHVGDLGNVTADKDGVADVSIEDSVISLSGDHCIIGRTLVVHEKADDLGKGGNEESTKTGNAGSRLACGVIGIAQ
mutant SOD1 G93A, FLAG-tagged (G93A-FLAG) (P00441, form named): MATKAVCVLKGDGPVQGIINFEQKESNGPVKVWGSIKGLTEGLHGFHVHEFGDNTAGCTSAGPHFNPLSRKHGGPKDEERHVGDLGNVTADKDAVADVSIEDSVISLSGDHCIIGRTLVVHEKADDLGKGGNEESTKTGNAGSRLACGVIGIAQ

Target: optineurin (endogenous, N2a cells) (mouse (endogenous in N2a)) (UniProt Q8K3K8)
Experiment: co-IP; N2a cells 48 h after transfection; 1% NP-40 lysis buffer; extracts incubated with OPTN antibodies overnight at 4 °C, Protein G Sepharose beads; immunoblotted with FLAG antibodies

binding | Substance
binds | mutant SOD1 A4V, FLAG-tagged (A4V-FLAG) (from UniProt P00441 1-154)
binds | mutant SOD1 G93A, FLAG-tagged (G93A-FLAG) (from UniProt P00441 1-154)
no binding | wild type superoxide dismutase 1, FLAG-tagged (SOD1-FLAG) (from UniProt P00441 1-154)
